This is an account of results in paper PMC3364957.

The assay deals with T1, GLD-1 (C. elegans (endogenous in worm lysate)) (UniProt Q17339).
T1 sequence: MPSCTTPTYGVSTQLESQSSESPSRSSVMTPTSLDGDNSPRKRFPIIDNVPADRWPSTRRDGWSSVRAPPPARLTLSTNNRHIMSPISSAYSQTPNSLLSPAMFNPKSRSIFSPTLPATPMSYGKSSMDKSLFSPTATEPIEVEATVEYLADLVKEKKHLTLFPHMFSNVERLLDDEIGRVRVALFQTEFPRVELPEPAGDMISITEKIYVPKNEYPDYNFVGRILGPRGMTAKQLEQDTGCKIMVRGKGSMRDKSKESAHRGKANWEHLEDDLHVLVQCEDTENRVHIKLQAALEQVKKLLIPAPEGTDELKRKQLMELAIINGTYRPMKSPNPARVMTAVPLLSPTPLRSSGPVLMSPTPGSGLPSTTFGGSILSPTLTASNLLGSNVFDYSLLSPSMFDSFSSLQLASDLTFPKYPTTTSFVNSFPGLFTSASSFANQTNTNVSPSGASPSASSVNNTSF
The experiment in a line: co-IP; GLD-1 IPs from worm lysate, co-precipitated proteins detected by western blot. A general note: A western blot detects proteins with antibodies after separation by electrophoresis.

No constants are given. Whether binding was seen depends on the method and setting. In cells and extracts the contact can be indirect. Some results given as binding are weak or reduced against the parent protein; the word gives no strength.

B1: CAR-1 (protein, UniProt Q9XW17 1-340)
chain: MSNQTPYIGSKISLISKLDIRYEGILYTVDTNDSTIALAKVRSFGTEKRPTANPVAARDDVYEYIIFKASDIKDLIVCDTPKMANIGGGLPYDPAIISVSSRSAPASDGAPAASAGSSRAGTPSRNSPLGQIIQNQRPGRGGYQQNFQANRGYNNYRGGFAGGYNNQRGHNNYGVPRVNHREKLKFESDFDFEKANEKFQEVLVDNLEKLNIEDKAEPEVEEKKDAAFYDKKTSFFDNISCESLEKAEGKTGRPDWKKERETNQETFGHNAVRSLNYRRGFGGRGRGGNRGYGGYNNGYQHQHQHRGGYNGGYRQNNGGYRRGGYAPRDNQGNTAAAAEQ
With B1, the binding result is “binds”.

B2: PAB-1 (protein, UniProt Q9U302 1-646)
chain: MEMNVAAPAAAVAGAAAPQPGQNQTGSSYTMASLYVGDLHPDVNESILFEKFSAAGPVLSIRVCRDNATRLSLGYAYVNFQQPADAERAMDTMNFEALHGKPMRIMWSQRDPAMRRSGAGNIFIKNLDKVIDNKSIYDTFSLFGNILSCKVAIDEDGFSKGYGFVHFETEEAAQNAIQKVNGMLLAGKKVFVGKFQPRAQRNRELGETAKQFTNVYVKNFGDHYNKETLEKLFAKFGNITSCEVMTVEGKSKGFGFVAFANPEEAETAVQALHDSTIEGTDLKLHVCRAQKKSERHAELKKKHEQHKAERMQKYQGVNLYVKNLDETVDDDGLKKQFESYGNITSAKVMTDENGRSKGFGFVCFEKPEEATSAVTEMNSKMVCSKPLYVAIAQRKEDRRAQLASQYMQRLASMRMHGNVPGAAMYNPTQPGPGYYVANPMQQQRNFAGGQQMVRPGGRWGMQNQYPVQNQYMMAQGPGVYQNRMGRPQNQQGGPRGPPQQYNQVAQGGVRMQGPPRTQNPGVQQQNVPRPPQQQQQQRPAPTGPKAPPQPYQAYQQRPQGIVIGGQEPLTSAMLAAAAPQEQKQLLGERIYALIEKLYPGHKDAGKITGMMLEIDNSELIMMLQDSELFRSKVDEAASVLVSAQKQ
Consider B2, for which the binding entry was “binds”.
